From PubChem BioAssay AID1347426 (Functional Genomics Laboratory (NCATS/FGL), 2020)
In all, about 31,000 sequences went through this assay and about 1,400 (4.5%) were called active.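 The calls were made as follows: active = median seed-adjusted z-score above 1 or below -1; inactive = the rest.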 Some of the results follow.

Assay: Novel Modifiers of Survival Motor Neuron (SMN) Protein: Gene Identification via Genome-wide siRNA Screen;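 also: luminescence tracks full-length SMN protein made from the SMN2 reporter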
Settings: HEK293T SMN2-luciferase reporter, siRNA knockdown, 72 h; actives lie on both sides
Method in brief: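 Each of three siRNAs per gene is reverse-transfected (1 pmol) into reporter HEK293T cells whose luciferase output tracks SMN protein level. After 72 h culture, ONE-Glo luminescence is control-normalized, log10-transformed and MAD-standardized; Common Seed Analysis deprioritizes seed-driven hits.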

| Sequence | median seed-adjusted z-score |
| --- | --- |
| GGAAAACGACCAAAACGAATT against BBX | inactive: -0.0824 |
| CCAACCAACAGAUCCUUAATT against RAI1 | inactive: 0.113 |
| GGACAGAAGUGCAACUGGATT against CGREF1 | inactive: 0.0743 |
| GACAUUAAAGUAUCAGUAATT against PDHX | inactive: 0.21 |
| GCCGUGACAUGAUAGGCAUTT against DDX41 | inactive: -0.611 |
| GUAAGUCCCUUUAUUCACATT against GFRA4 | active: -1.59 |
| CGCGGUUUAUCGAGGAUAATT against SALL3 | inactive: -0.133 |
| AGCUGGUUCACGACAUGAATT against TRIP6 | active: 1.03 |
| GGACUAUCUGGAGAUGUUUTT against RNF112 | inactive: -0.42 |
| GGGUGGUAUUUCCAACAUUTT against CCT4 | inactive: -0.413 |
| GACCUUCCCUACGAUUAUATT against HLCS | inactive: 0.0646 |
| CCAUGACUCCUGACUACCATT against KRT32 | inactive: -0.000598 |
| GGAGUCUUUUGAAACGGAUTT against SHPRH | inactive: 0.169 |
| CAAGCAAGAUAAUUAUAAUTT against ASCC3 | inactive: -0.192 |
| GACCUUCAGUCAUACAUCATT against ZNF525 | inactive: 0.134 |
| GCAUGUUAAUGGGUUUAAUTT against GNAS | inactive: -0.531 |
| GGCUGAAAACGGAGCACAATT against PCDHB16 | inactive: -0.523 |
| GUCUGGUUGUACUAGCAAATT against ACAT1 | inactive: -0.848 |
| GCUUUUAACCAUUCUGCAATT against ZNF93 | inactive: 0.502 |
| GGUUUAUAAUUCCGAAAAATT against AGA | inactive: -0.0433 |
| GGAGAAAACAGUAAAGGCATT against SRY | inactive: -0.949 |
| ACGGCUCUGUGGACACAGATT against GPR78 | inactive: 0.607 |

| Sequence | median seed-adjusted z-score |
| --- | --- |
| GUGUGAUUCUUGGAGCAAATT against PLD2 | inactive: -0.743 |
| GACUAUUACCAAACCAUGUTT against LEPRE1 | inactive: 0.121 |
| CCACCAACCGGAAGCUGAATT against POR | inactive: 0.189 |
| GCAGGAGUUUGUUUAAUGATT against UGT1A10 | inactive: 0.286 |
| GAACUGCCCUUGGUUGAGATT against AP4E1 | inactive: 0 |
| GGUAGACUGUCAUCGUGAATT against RAD50 | inactive: 0.266 |
| AGAAAGUUCAUAAAUACAATT against RASSF3 | inactive: -0.323 |
| CUAGGACUAUUAUCCAGGATT against SLC26A8 | inactive: -0.145 |
| GAGAUGGAUUCGAAGAACATT against DHRSX | inactive: -0.686 |
| AGAUGUGAGUGACUUGGAATT against APOF | inactive: 0.0982 |
| CACCAUAUGUAGUCUCAUUTT against ORC3L | inactive: -0.254 |
| GUGCUGAUAUUGAUGCGUUTT against PAPOLA | inactive: 0 |
| GAAUCGUGAGGAUCGUAUATT against PLCG1 | inactive: -0.336 |
| GGCUGUACUUCGUCAUGGATT against PRKCA | inactive: -0.249 |
| GCUUUUGCAAAGACAACUATT against ASPA | inactive: -0.138 |
| GCAACUCAGUUCACGCAAATT against SENP8 | inactive: 0 |
| GAUGGACUCUUCAAAUUCATT against CYP27C1 | inactive: 0.0462 |
| CUACAGAUGUUCAUCGGCATT against NFATC4 | inactive: 0 |
| CCGUUCACCUUGUCACUGATT against TEAD2 | inactive: 0.96 |
| GCAGCCGAAGAUGAACUAATT against PMS2 | inactive: -0.162 |
| GAGUGGUAACUUCAAUUUUTT against CPA2 | inactive: 0.0374 |
| CCUUACCUAUGGAAUCAUATT against SLC16A10 | inactive: -0.205 |

| Sequence | median seed-adjusted z-score |
| --- | --- |
| CGAGUGCAGUGCCUCCAAUTT against NTM | inactive: 0 |
| CGUUAUCAGCAGAUAAUGATT against TRPC3 | inactive: -0.0856 |
| GACUGAUCUUCUUCCUAAATT against SULT1B1 | inactive: -0.115 |
| CAGCGAUCAUUCAUACCUATT against ZNF597 | inactive: 0.366 |
| CGGCCCUCCUCUGAAAAGATT against POU4F2 | active: 1.46 |
| CUGCUUAUAUCAAAACGGATT against EGF | inactive: 0.00831 |
| GAGGUAAGAUGGAUGAAGATT against ACSM1 | inactive: 0.658 |
| CCCUUUACGUCAUCCCUGATT against RELA | inactive: -0.646 |
| GGAUGCUGCUCUACUCAAATT against SENP3 | inactive: 0.543 |
| GGCUCCUUAUAUGACUAUUTT against ACVR1C | inactive: -0.0005 |
| GGAGAAAUCAGCUACAGGATT against SRD5A2 | inactive: 0.185 |
| GGAUCUACCUGUCACUACUTT against ARHGEF2 | inactive: 0.0929 |
| CCUCGUCCCUGUGGAAAGATT against NOS3 | inactive: 0.212 |
| CAAAGACAGCUUUCACAGUTT against MAX | inactive: 0.0949 |
| CCUACACCAUGAUCGGAAATT against KIF26B | inactive: -0.153 |
| GCAUCGUACAAAAACGCAUTT against SPON1 | inactive: 0.248 |
| CAUUGUCUCCUGUUCGAUUTT against SGK269 | inactive: -0.171 |
| GCGUACAGCGUGUCCAUGATT against SLC16A5 | inactive: -0.151 |
| GGACUUAACGGUAUCCAAATT against PCDHB10 | inactive: -0.09 |
| GCAGGAGAUUCAUCGAAGATT against DPP10 | inactive: -0.0478 |
| ACAAGGCACUUGUCACUAUTT against KCNJ11 | inactive: -0.567 |
| GCAUCACGAUUAAUGUUCUTT against TGM5 | inactive: 0.0181 |

| Sequence | median seed-adjusted z-score |
| --- | --- |
| GCAUGUCCAUCUACUCGGATT against GRIN1 | inactive: -0.137 |
| CACACUUCCUACGACAAAATT against PIP4K2A | inactive: 0.469 |
| GAGAAAAGCUAGACAAAAUTT against IFIT1 | inactive: -0.489 |
| GCCUAGACCACAUAAUGAATT against IL17RB | inactive: -0.464 |
| CUAAAAGACCGAACAAUAATT against HNRPUL1 | inactive: -0.047 |
| CGUGAUUAGUGGAGUACUATT against CENPC1 | inactive: 0 |
| CCCGUACUGUUUAACAAUUTT against HERC3 | inactive: -0.0884 |
| CAGCCUUAUAUAUCAAAGATT against ZNF674 | inactive: 0.234 |
| CCAGUAUGAUGGGUCCAUATT against CADM4 | inactive: 0.16 |
| GCUUUGUUGAGUUCUACUATT against TREH | inactive: 0.396 |
| CCAAGAUUGCUGACUCUAATT against FLOT2 | inactive: 0.961 |
| CCCUCUUUGGUCUAACUCATT against HOXA3 | inactive: 0.315 |
| CCAGAUUUAUGAGAAGCAUTT against MCM3 | inactive: 0.339 |
| GGGACUCAAGUGAAAGUGATT against CD300LB | inactive: -0.466 |
| GGUUUACCAUAGUUACUUUTT against TXNRD1 | inactive: 0.485 |
| CAACGAUAGAAGAUUCCUATT against RAP1A | inactive: 0.276 |
| CCAGAAAACUUGCGAAACATT against RFX4 | inactive: -0.0226 |
| AGAGUUCACUGAAACGGAATT against CD40 | inactive: 0.275 |
| GGAAAUCGGCCUACAAGAUTT against LONP1 | inactive: -0.291 |
| CAGGUCAAGUGUUACCGAUTT against ZCCHC13 | inactive: -0.297 |
| GCAACUCCAGCCUAAUUAATT against ZNF792 | inactive: 0 |
| GGAUAGCACUUGUCCUGAATT against ZFY | inactive: -0.128 |

| Sequence | median seed-adjusted z-score |
| --- | --- |
| AAGUUUUACUCAAUCCAAATT against PHOX2A | inactive: 0.466 |
| AGCUCAACCGGUUUAAUAATT against SLC9A1 | inactive: 0 |
| GCGUCAGACUUUUUCACCATT against TIA1 | inactive: -0.188 |
| CCACCGUGUUGCAGAUAUATT against SND1 | inactive: -0.0434 |
| CUAAACCUCUGAUCUCUUATT against SOCS7 | inactive: 0.179 |
| CUCCUUUCCUGAUUACUUUTT against ZNF672 | inactive: 0.35 |
| CAGUUGGAGUUUGACCCAATT against MMP3 | inactive: 0.0592 |
| CCAUCUAACCAGACAAGAATT against ERO1L | inactive: -0.251 |
| GCUUCUCACUCAUCACUAATT against NP | inactive: -0.386 |
| UCCUGUGCAUUGAUCGCUATT against HRH1 | inactive: 0.204 |
| GAAGGUGCCUGUGCAGACATT against PRSS22 | inactive: -0.565 |
| GAGCAGGUGUUAUUAUGGATT against CLCN3 | inactive: -0.0801 |
| ACAAAAAGCUAAUACCAGUTT against SMAD6 | inactive: -0.167 |
| GAAAACCCUUGUAAGUAUATT against ZNF354A | inactive: 0.401 |
| GCACUUUAUUUGACUACUUTT against TRNT1 | inactive: 0.142 |
| CAGUCAAGGCGAAAGGUUUTT against SDHA | inactive: -0.103 |
| GGGCAUGCGUGGGUUCAAATT against SCARA5 | inactive: -0.278 |
| UCUUAUUUAUUCUACAUCCTT against TNFRSF6B | inactive: 0.0458 |
| GCACCUUUGUGACCUAUGATT against KIF9 | inactive: 0 |
| UCAUCAAUCCAAUAAUCUATT against HTR1D | inactive: -0.155 |

Given tab-delimited: part of the list above.
Sequence	median seed-adjusted z-score
GAGCAGGUGUUAUUAUGGATT against CLCN3	inactive: -0.0801
ACAAAAAGCUAAUACCAGUTT against SMAD6	inactive: -0.167
GAAAACCCUUGUAAGUAUATT against ZNF354A	inactive: 0.401
GCACUUUAUUUGACUACUUTT against TRNT1	inactive: 0.142
CAGUCAAGGCGAAAGGUUUTT against SDHA	inactive: -0.103
